{"source": "patent US20180312473A1", "about": "“PHENAZINE DERIVATIVES AS ANTIMICROBIAL AGENTS” (priority 2015, published 2018)", "key": {"[1]": {"test_system": "methicillin-resistant S. aureus (MRSA) strains", "assay": "MIC assay, values summarised over MRSA strains", "type": "cell-based, Staphylococcus aureus", "conditions": "range over the MRSA strains/isolates tested"}, "[2]": {"test_system": "MRSE (S. epidermidis ATCC 35984) planktonic cells and biofilms", "assay": "Calgary Biofilm Device (CBD) assay, MBC/MBEC", "type": "cell-based, Staphylococcus epidermidis", "conditions": "viable biofilm cell count from CBD peg"}, "[3]": {"test_system": "MRSA-2 planktonic cells and biofilms", "assay": "Calgary Biofilm Device (CBD) assay, MBC/MBEC", "type": "cell-based, Staphylococcus aureus"}, "[4]": {"test_system": "MRSA biofilms (MRSA-2, BAA-1707, BAA-44)", "assay": "Calgary Biofilm Device assay, values summarised over MRSA strains"}}, "note": "Some entries share one result that the patent states for a list of compounds."}
{"smiles": "Oc1ccc(I)c2nc3cc(Cl)c(Cl)cc3nc12", "note": "[Compound 12, 7,8-Dichloro-4-iodo-1-hydroxyphenazine]", "values": [{"measurement": "MIC against MRSA strains", "setting": "[1]", "result": "0.15 to 0.78", "unit": "µM"}]}
{"smiles": "Oc1c(Br)cc(I)c2nc3cc(Cl)c(Cl)cc3nc12", "note": "[Compound 14, 2-bromo-7,8-dichloro-4-iodo-1-hydroxyphenazine]", "values": [{"measurement": "persister cells eradicated within MRSE biofilms at the MBEC", "setting": "[2]", "result": "> 4", "unit": "log"}, {"measurement": "reduction in viable MRSE biofilm cells at sub-MBEC values", "setting": "[2]", "result": "1-2 log"}]}
{"smiles": "Oc1c(I)cc(I)c2nccnc12", "note": "[Compound 26]", "values": [{"measurement": "fold reduction/loss in MRSA-2 biofilm eradication activity compared to HP 2", "setting": "[3]; from MBEC values", "result": "> 20", "unit": "fold"}]}
{"smiles": "C[C@H]1c2cccc(O)c2C(=O)C2=C(O)[C@]3(O)C(=O)C(C(N)=O)=C(O)[C@@H](N(C)C)[C@@H]3[C@@H](O)[C@@H]21", "note": "[Doxycycline, doxycycline, reference compound]", "values": [{"measurement": "MBEC:MBC ratio, MRSA-2", "setting": "[3]", "result": "> 23"}]}
{"smiles": "CC(=O)NC[C@H]1CN(c2ccc(N3CCOCC3)c(F)c2)C(=O)O1", "note": "[Linezolid, linezolid, reference compound]", "values": [{"measurement": "MBC (planktonic killing) against MRSA strains", "setting": "[4]", "result": "3.0 to 125", "unit": "µM"}, {"measurement": "MBEC against MRSA biofilms", "setting": "[4]", "result": "> 2,000 μM"}]}
{"smiles": "CO[C@H]1/C=C/O[C@@]2(C)Oc3c(C)c(O)c4c(O)c(c(/C=N/N5CCN(C)CC5)c(O)c4c3C2=O)NC(=O)/C(C)=C\\C=C\\[C@H](C)[C@H](O)[C@@H](C)[C@@H](O)[C@@H](C)[C@H](OC(C)=O)[C@@H]1C", "note": "[Rifampin, rifampin, reference compound]", "values": [{"measurement": "MBEC:MBC ratio, MRSA-2", "setting": "[3]", "result": "> 23"}]}
